At least one compound was matched to its structure with a doubt left.
Assay: Chlorine dioxide compatibility: ClO2 decrease in 200 ppm ClO2 test samples containing an additive (UV/Vis absorption or titration)
Assay type: physicochemical
Conditions: Table 3; 200 ppm ClO2 test sample, single additive at listed wt. %; interpolated to 8 hours

Question: For `CC1=C(O)C(=O)C(C)O1` (stereo not shown) [compound 27, Furaneol], which “ClO2 decrease @ 8 hrs” value is on record?
Answer: 100%
